This is an account of results in the supplement of paper PMC11732987, “Enantioselective OTUD7B fragment discovery through chemoproteomics screening and high-throughput optimisation” (Communications Chemistry, 2025).

Chains of the proteins cited; added tags and fusions are not shown. Lines headed by an entry give the natural chain unless they say otherwise; changes in a name come on top. Residues count along the entry.
UniProt Q9P0U4, whole entry, looked up: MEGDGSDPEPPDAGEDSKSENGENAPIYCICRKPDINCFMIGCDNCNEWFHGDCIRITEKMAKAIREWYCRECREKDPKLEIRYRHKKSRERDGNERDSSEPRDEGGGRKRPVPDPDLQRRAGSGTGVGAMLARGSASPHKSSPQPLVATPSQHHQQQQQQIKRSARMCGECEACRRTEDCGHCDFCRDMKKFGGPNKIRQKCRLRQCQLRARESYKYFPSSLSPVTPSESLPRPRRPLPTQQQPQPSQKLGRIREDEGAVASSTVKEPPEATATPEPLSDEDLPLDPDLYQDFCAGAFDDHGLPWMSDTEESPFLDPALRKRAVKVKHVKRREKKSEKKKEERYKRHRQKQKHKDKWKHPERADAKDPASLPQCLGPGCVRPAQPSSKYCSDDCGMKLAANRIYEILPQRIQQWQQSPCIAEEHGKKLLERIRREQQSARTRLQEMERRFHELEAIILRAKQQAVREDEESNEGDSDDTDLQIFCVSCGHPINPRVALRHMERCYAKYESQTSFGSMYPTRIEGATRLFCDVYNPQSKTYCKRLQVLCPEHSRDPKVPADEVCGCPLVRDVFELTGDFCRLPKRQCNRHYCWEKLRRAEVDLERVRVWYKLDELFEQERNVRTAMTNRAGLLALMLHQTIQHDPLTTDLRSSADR
UniProt P55060: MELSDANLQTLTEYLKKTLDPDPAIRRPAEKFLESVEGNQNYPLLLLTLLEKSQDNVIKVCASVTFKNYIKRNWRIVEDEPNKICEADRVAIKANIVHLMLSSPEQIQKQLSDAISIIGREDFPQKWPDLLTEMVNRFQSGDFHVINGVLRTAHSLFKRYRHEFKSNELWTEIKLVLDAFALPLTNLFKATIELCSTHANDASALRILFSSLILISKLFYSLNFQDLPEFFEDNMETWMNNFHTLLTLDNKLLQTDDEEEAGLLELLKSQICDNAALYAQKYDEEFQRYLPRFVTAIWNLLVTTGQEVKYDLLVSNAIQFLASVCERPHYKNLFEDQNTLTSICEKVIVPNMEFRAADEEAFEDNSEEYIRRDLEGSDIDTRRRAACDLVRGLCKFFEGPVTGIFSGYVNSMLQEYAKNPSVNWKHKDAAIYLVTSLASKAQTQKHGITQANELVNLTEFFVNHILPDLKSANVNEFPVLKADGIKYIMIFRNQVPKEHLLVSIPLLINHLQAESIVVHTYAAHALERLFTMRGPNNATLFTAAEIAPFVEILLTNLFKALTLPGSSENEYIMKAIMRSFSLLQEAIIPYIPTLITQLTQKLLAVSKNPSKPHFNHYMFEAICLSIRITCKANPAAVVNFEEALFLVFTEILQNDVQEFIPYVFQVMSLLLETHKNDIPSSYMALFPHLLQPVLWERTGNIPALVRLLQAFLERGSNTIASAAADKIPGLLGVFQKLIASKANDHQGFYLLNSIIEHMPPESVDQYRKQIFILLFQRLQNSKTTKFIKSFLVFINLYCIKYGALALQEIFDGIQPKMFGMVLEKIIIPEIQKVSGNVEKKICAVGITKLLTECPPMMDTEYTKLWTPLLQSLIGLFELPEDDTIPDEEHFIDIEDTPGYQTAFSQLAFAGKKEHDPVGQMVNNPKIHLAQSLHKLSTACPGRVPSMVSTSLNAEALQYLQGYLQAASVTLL
UniProt Q9UER7, whole entry, looked up: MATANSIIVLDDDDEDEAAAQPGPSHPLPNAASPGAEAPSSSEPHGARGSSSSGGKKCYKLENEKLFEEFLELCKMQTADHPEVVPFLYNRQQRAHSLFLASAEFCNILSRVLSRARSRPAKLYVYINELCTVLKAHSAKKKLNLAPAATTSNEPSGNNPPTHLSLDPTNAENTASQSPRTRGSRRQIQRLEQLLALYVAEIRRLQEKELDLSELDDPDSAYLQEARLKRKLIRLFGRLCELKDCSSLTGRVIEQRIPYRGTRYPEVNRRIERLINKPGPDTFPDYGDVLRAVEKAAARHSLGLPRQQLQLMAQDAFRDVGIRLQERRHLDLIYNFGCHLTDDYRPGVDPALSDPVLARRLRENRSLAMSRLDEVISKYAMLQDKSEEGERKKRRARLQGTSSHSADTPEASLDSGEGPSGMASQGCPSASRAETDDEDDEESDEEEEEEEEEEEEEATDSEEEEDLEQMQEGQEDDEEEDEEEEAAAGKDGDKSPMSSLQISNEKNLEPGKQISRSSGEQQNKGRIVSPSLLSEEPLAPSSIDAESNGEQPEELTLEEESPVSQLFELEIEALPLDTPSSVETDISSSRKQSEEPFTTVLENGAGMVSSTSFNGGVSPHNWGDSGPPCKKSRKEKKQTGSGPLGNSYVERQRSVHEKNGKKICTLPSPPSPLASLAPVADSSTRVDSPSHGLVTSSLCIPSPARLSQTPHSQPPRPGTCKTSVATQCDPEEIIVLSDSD
UniProt Q9UHI6: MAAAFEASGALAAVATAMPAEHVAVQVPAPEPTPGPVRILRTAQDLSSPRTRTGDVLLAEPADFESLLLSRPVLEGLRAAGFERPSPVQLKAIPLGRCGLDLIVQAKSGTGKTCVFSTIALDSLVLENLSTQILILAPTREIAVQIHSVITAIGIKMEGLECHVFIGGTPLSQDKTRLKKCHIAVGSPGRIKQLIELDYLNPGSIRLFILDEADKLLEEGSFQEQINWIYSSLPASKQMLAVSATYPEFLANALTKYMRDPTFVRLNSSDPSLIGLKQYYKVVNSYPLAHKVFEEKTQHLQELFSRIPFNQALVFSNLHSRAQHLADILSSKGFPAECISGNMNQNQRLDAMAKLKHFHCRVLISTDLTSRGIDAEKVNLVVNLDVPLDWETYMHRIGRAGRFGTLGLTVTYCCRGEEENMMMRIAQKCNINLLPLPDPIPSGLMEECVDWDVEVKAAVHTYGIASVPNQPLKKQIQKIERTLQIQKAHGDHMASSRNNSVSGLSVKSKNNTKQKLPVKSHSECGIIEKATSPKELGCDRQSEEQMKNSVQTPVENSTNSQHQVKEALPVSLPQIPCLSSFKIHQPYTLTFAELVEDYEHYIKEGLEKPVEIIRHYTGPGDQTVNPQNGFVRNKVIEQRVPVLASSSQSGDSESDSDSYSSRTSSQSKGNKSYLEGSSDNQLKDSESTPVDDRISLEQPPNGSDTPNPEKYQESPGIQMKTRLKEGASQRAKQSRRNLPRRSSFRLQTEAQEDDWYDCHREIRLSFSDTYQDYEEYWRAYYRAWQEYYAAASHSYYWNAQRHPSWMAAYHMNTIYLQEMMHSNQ
UniProt Q13206: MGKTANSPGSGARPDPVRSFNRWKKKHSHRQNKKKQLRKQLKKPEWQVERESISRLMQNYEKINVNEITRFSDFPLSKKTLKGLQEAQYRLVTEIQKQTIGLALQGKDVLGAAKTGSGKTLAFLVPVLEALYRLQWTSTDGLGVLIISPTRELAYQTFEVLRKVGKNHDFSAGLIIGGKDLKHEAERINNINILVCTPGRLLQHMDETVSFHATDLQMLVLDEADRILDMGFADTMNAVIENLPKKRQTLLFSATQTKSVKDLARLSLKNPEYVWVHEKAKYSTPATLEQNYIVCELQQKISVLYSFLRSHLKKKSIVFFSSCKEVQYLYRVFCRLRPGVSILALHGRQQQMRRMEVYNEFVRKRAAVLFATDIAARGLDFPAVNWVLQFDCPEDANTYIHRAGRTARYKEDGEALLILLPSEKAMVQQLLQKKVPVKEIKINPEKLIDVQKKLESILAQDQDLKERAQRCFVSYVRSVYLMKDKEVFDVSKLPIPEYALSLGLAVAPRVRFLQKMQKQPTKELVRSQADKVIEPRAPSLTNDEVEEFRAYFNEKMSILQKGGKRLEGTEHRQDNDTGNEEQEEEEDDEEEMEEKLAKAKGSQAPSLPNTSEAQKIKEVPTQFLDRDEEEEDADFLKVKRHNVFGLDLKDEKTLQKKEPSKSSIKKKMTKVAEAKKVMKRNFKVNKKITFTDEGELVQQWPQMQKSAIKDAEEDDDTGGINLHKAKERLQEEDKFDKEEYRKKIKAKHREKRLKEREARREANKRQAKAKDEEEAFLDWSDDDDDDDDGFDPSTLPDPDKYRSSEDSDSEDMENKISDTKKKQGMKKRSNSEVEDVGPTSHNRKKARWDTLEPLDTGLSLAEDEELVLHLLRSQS
UniProt Q9NQC7, 895-917: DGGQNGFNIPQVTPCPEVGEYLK
UniProt Q8N8A6, 388-407: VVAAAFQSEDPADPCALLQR
UniProt Q16850: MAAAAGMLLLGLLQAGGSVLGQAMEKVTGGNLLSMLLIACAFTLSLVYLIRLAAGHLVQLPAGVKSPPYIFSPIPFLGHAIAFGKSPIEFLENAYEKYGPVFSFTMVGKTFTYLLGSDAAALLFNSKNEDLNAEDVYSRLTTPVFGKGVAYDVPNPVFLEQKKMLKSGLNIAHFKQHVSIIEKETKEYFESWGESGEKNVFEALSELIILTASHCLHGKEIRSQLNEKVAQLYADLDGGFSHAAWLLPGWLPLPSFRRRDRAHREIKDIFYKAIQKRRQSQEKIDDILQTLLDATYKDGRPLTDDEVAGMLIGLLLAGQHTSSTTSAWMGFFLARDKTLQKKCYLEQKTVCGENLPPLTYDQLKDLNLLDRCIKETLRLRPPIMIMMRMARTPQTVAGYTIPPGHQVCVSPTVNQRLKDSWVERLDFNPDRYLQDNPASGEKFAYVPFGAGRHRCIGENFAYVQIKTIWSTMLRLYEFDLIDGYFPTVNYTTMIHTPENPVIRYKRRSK
UniProt O43310: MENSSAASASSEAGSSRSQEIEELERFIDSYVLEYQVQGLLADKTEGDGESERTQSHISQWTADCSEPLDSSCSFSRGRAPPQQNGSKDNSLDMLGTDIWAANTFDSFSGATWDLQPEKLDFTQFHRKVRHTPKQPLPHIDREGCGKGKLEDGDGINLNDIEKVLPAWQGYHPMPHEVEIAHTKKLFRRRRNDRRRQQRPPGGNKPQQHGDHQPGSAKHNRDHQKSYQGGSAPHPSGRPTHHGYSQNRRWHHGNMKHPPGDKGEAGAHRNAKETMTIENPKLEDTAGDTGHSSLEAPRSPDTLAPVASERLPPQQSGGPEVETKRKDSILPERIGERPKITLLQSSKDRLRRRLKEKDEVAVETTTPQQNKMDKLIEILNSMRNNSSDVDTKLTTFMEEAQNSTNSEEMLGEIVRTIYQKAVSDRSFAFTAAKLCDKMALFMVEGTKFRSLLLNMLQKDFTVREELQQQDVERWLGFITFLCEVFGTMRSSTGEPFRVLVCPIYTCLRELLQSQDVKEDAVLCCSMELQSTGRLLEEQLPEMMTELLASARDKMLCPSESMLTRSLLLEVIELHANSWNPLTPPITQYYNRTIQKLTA
UniProt Q2NKJ3: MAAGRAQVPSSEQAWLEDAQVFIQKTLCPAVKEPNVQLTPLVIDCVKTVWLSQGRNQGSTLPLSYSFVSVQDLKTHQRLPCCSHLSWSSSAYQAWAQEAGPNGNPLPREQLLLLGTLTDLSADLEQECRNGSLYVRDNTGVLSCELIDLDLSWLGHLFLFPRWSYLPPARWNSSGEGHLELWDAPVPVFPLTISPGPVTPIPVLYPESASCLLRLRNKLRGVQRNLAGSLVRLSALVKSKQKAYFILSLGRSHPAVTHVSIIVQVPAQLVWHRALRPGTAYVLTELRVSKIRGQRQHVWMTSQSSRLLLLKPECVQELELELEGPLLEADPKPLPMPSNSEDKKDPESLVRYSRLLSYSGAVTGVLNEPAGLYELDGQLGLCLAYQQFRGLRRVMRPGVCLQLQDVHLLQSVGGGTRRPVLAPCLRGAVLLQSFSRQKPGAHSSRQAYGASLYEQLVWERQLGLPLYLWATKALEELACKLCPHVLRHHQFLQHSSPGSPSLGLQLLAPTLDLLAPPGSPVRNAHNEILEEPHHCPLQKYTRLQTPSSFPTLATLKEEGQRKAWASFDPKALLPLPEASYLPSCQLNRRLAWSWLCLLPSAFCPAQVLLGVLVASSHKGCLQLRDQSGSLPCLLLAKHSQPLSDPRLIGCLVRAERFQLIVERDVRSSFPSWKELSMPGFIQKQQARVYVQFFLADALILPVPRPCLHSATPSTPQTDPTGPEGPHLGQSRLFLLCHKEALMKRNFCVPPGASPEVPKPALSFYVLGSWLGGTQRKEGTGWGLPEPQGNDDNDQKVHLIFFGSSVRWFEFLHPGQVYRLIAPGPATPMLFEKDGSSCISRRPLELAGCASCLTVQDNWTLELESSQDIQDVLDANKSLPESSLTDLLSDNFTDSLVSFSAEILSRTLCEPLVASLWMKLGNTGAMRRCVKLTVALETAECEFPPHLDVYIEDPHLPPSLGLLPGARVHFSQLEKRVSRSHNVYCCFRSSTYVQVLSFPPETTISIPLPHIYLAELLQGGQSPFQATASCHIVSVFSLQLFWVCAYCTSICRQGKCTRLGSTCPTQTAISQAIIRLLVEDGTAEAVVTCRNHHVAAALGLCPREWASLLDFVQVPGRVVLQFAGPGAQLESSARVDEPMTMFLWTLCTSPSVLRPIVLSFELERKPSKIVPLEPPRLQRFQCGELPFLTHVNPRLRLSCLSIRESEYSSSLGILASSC

This is one part of the list. The data scatter; read single values as rough.

Compound in assay [1]: ClCC(=O)N[C@@H]1CCCc2ccccc12
Put plainly: log2 mean competition ratio of IA-DTB cysteine labelling (DMSO/compound) (log2 ratio); higher = stronger cysteine engagement by compound. The note with it: treatment time: 4 h, cell line lysate: HEK293T. How it is done: (§1)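 IA-DTB competitive cysteine chemoproteomics in HEK293T RIPA lysate. Lysates were treated with compound 29 or 30 at 50 or 200 µM for 4 h, then IA-DTB (500 µM, 1 h), trypsin-digested, NeutrAvidin-enriched and analysed by diaPASEF. Competition ratio = intensity DMSO / intensity compound (n=4 treated, n=64 DMSO); binding: mean log2 CR ≥ 1 and p ≤ 0.05 plus QC filters. Target is the cysteine site.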

Compound in assay [2]: ClCC(=O)N[C@H]1CCCc2ccccc12
The description is as above. Conditions: treatment time: 4 h, cell line lysate: HEK293T. As for the experimental part:
as §1

On to CXXC1 C531 (UniProt Q9P0U4), for which the “log2 mean competition ratio” value was -0.0203 in assay [1] (50 µM), -0.013 in assay [1] (200 µM), -0.213 in assay [2] (50 µM) and -0.058 in assay [2] (200 µM).

Regarding CSE1L C344 (UniProt P55060), the “log2 mean competition ratio” value in assay [1] (50 µM) was -0.272; in assay [1] (200 µM), -0.119; in assay [2] (50 µM) it was -0.131; in assay [2] (200 µM), 0.000759.

For the target DAXX C245 (UniProt Q9UER7), the “log2 mean competition ratio” value was -0.0451 in assay [1] (50 µM), -0.0273 in assay [1] (200 µM), 0.215 in assay [2] (50 µM) and 0.093 in assay [2] (200 µM).

For the target CUL1 C426 (UniProt Q13616), the “log2 mean competition ratio” value in assay [1] (50 µM) is -0.0376; in assay [1] (200 µM), 0.237; in assay [2] (50 µM), 0.157; in assay [2] (200 µM), 0.207.

Turning to DDX20 C162 (UniProt Q9UHI6), the “log2 mean competition ratio” value in assay [1] (50 µM) is -0.178; in assay [1] (200 µM) it was -0.555; in assay [2] (50 µM), -0.581; in assay [2] (200 µM), -0.357.

On to DDX10 C196 (UniProt Q13206), for which the “log2 mean competition ratio” value is -0.0731 in assay [1] (50 µM), -0.0877 in assay [1] (200 µM), -0.0956 in assay [2] (50 µM) and -0.143 in assay [2] (200 µM).

In the case of CYLD C909 (UniProt Q9NQC7), the “log2 mean competition ratio” value in assay [1] (50 µM) is -0.205; in assay [1] (200 µM), 0.297; in assay [2] (50 µM), -0.299; in assay [2] (200 µM) it was 0.243.

For the target DDX51 C402 (UniProt Q8N8A6), the “log2 mean competition ratio” value in assay [1] (50 µM) is -0.241; in assay [1] (200 µM), 0.297; in assay [2] (50 µM), -0.316; in assay [2] (200 µM), 0.0566.

With CUL2 C103 (UniProt Q13617), the “log2 mean competition ratio” value in assay [1] (50 µM) is 0.325; in assay [1] (200 µM), -0.0188; in assay [2] (50 µM), 0.0717; in assay [2] (200 µM), -0.0144.

As to CYP51A1 C351 (UniProt Q16850), the “log2 mean competition ratio” value in assay [1] (50 µM) is 0.367; in assay [1] (200 µM), 0.00888; in assay [2] (50 µM), 0.5; in assay [2] (200 µM), -0.00757.

CTIF C556 (UniProt O43310): the “log2 mean competition ratio” value in assay [1] (50 µM) was 0.545; in assay [1] (200 µM), -0.0921; in assay [2] (50 µM), 0.41; in assay [2] (200 µM), -0.177.

Take DCTN1 C81 (UniProt Q14203): the “log2 mean competition ratio” value in assay [1] (50 µM) is -0.00399; in assay [1] (200 µM), 0.135; in assay [2] (50 µM) it was -0.524; in assay [2] (200 µM) it was 0.0142.

For the target DCUN1D3 C163 (UniProt Q8IWE4), the “log2 mean competition ratio” value was 0.255 in assay [1] (50 µM), -0.344 in assay [1] (200 µM), 0.262 in assay [2] (50 µM) and -0.337 in assay [2] (200 µM).

Regarding DDR2 C580 (UniProt Q16832), the “log2 mean competition ratio” value in assay [1] (50 µM) is -0.278; in assay [1] (200 µM), 0.676; in assay [2] (50 µM), -0.731; in assay [2] (200 µM) it was -0.258.

Consider CTNNA1 C116 (UniProt P35221), for which the “log2 mean competition ratio” value is -0.121 in assay [1] (50 µM), -0.451 in assay [1] (200 µM), 0.0258 in assay [2] (50 µM) and -0.382 in assay [2] (200 µM).

Consider CTC1 C535 (UniProt Q2NKJ3), for which the “log2 mean competition ratio” value is 0.546 in assay [1] (50 µM), 0.201 in assay [1] (200 µM), 0.258 in assay [2] (50 µM) and 0.00716 in assay [2] (200 µM).
